# Results published in PMC6559718 (Journal of biomolecular screening, 2016).
# Assays:
# Conditions in all cases: Saccharomyces cerevisiae
# in vitro [1] = assay: in vitro
# in vitro [2] = assay: in vitro; remark: listed apart in the source
# in vitro [3] = assay: in vitro; remark: listed apart in the source
# in vitro [4] = assay: in vitro; remark: listed apart in the source
compound,measurement,setting,value
CCCCc1oc2ccccc2c1C(=O)c1cc(I)c(OCCN(CC)CC)c(I)c1 [Amiodarone],IC50,in vitro [1],37 ± 12 µM
same,IC50,in vitro [2],> 100 µM
same,IC50,in vitro [3],> 100 µM
same,IC50,in vitro [4],> 100 µM
